Data reported in PMC10163288.
This is one part of the list.

B1: il10ra_site1_sap_17_mot_802863e75c239dc72d0ffd0be86c571b_0001_1_000000009_0001_36_49_H_._HHH_b1_01883_af2_0001_0000500024_0000001_0_0001 (protein)
chain: SSSSDLEEEVEELLEELKHAKSEEEYAELALRVVRVAYESNDPELLEEVWEVIKEVASRLSSSSS
B2: il10ra_site1_normal_mot_HHH_b1_01082_af2_000000031_0001_3_19_H_._HHH_b1_05184_af2_0001_0000100004_0000001_1 (protein)
chain: SSSSDEEAYELLKRIIEQLIELARNGDPEEAEELAEKAREELEELGDPFFAEQLERAFRLISSSS
B3: il10ra_site1_sap_17_mot_HHH_b1_06789_af2_000000041_0001_1_20_H_._HHH_b2_08192_af2_0001_0000100001_0000001_1_0001 (protein)
chain: SSSSSSSKADEIYELIRKAMEIEDPKEAEEVLEEAKRLAEELGSMTLLWIVEWLLEKLSSSSSSS
B4: il10ra_site1_sap_16_mot_HHH_b1_01307_000000115_0001_1_18_H_._HHH_b2_08110_0001_0000400034_0000001_0_0001_af2pred_0001 (protein)
chain: SSSSSEIEEEVKELLEEAKRIDDKDERAHVLLRAFAVAVRGNNPELEEEVERVAIELSEKSSSSS
B5: il10ra_site1_sap_23_mot_HHH_b2_00475_000000107_0001_44_57_H_._HHH_b1_00351_0001_0000200016_0000001_0_0001_af2pred_0001 (protein)
chain: SSSSSEEEEEVEELLRQAEEARENGDPELVFKLLRRAIEIAAKNNDPELLRLVREFLKRLFSSSS
B6: il10ra_site1_normal_mot_HHH_b1_06994_000000193_0001_40_55_H_._HHH_b2_06031_0001_0000100010_0000001_0 (protein)
chain: SSSSDQEEELIRAALRLVKQILEHGDPRSARFLLWAARLLAEEINNEELLERVEELEEELNSSSS
B7: il10ra_site1_sap_13_mot_HHH_b2_01235_000000294_0001_1_18_H_._HHH_b1_00824_0001_0000300026_0000002_0_0001 (protein)
chain: SSSSDDLEQLFELLRRIAELLHEGDPEEARELIEEAKELAEELNSDVFRMQLEYLEKQAESSSSS
B8: il10ra_site1_normal_mot_HHH_b1_02062_000000185_0001_1_20_H_._HHH_b1_08541_0001_0000100021_0000002_0 (protein)
chain: SSSSTEERRRAYELSREIVELESEGDEERAEELLEELRELVEKLGDENFEFIVRLLERLLHSSSS
B9: il10ra_site1_normal_mot_8756ee2cf497b5429c717dfc0c0bcfd6_0001_000000186_0001_1_13_H_._HHH_b1_02500_0001_0000100009_0000001_0 (protein)
chain: SSSDVAERVQELSREAAELDLQGNPEEAEEVVEEALELAEEGNNDVLRVTLEYLLRLIRENSSSS
B10: il10ra_site1_normal_mot_d2735b3c0fe9b97dc03c9ec5d23a03fd_0001_1_af2_000000071_0001_17_32_H_._HHH_b1_00695_0001_0000200018_0000001_0 (protein)
chain: SSSSTEERQHLEAIIWFAEITRRENPHAARRALEFALEIAEELNDEEAAERIEELLREIRESSSS
B11: il10ra_site1_sap_23_mot_HHH_b1_05214_000000232_0001_38_57_H_._66981ac803f9207b9bc56eb15b90107a_0001_0001_0000100001_0000002_0_0001 (protein)
chain: SSSSSSDVEEILEEAEEARERGDPERALRLLQEAIRLAFQLGDAEKLQLIYEVAKRIESSSSSSS
B12: il10ra_site1_normal_mot_HHH_b2_03038_000000109_0001_1_20_H_._HHH_b2_04520_0001_0000400053_0000002_0 (protein)
chain: SSSSSEAEELYKLSREINELIVEGDREEAEELLEEARELAERAGNLNFRVILEFLERLLESSSSS
B13: il10ra_site1_normal_mot_HHH_b1_02997_000000220_0001_39_52_H_._HHH_b1_06600_0001_0000200014_0000002_0_af2pred_0001 (protein)
chain: SSSSSKSEEAVKLLREAIEALAEGNPEEAEELLEEARRLAEEANNLITRVIIEFLLEQLESSSSS
B14: il10ra_site1_normal_mot_HHH_b2_00277_af2_000000172_0001_1_17_H_._HHH_b2_00497_0001_0000300029_0000002_1_af2pred_0001 (protein)
chain: SSSSSDLEEEVRKLLEEARQIEDLREAAYALTRAFAIAVRNNNEELEREVKEVAKEVMHLSSSSS
B15: il10ra_site1_sap_23_mot_HHH_b1_06816_000000239_0001_1_19_H_._HHH_b1_02701_0001_0000100010_0000002_0_0001 (protein)
chain: SSSDRAQRAYELLKEIIRLASDGNPEEAEELLRELEELIKERGSPVMEFLLRKAEELVEETSSSS
B16: il10ra_site1_sap_15_mot_HHH_b2_07596_000000080_0001_23_39_H_._HHH_b2_00613_0001_0000100015_0000001_0_0001_af2pred_0001 (protein)
chain: SSSSSSDIARRVYELSREAAQIDDPEEAQEVAEEALELAEEGNNPVLVHVARFLLERLSSSSSSS
B17: il10ra_site1_normal_mot_HHH_b1_00999_000000080_0001_41_55_H_._HHH_b2_07384_0001_0000600020_0000002_0 (protein)
chain: SSSSSSEEVEELLEEAEELYKRGNEEEVTRVLQEATQFAFELQDPELLRLVWKLAKELGSSSSSS
B18: il10ra_site1_sap_15_mot_HHH_b1_01939_000000180_0001_37_52_H_._HHH_b1_08166_af2_0001_0000600039_0000001_0_0001 (protein)
chain: SSSSSEEEEEAQRLLEELERLLEEGDHEEFIRVSVRALRVIYRAQNPELLRLLWELVKKWGSSSS
B19: il10ra_site1_sap_17_mot_23887b7af660956ed16a9c889f5d2f9d_0001_1_af2_000000073_0001_18_33_H_._HHH_b1_04072_af2_0001_0000200002_0000001_0_0001_af2pred_0001 (protein)
chain: SSSSDEEEEEVEELLKRLEEAIKEGDLELASKLIRRLAKLIAELQDEELLRELRRLLRELFSSSS
B20: il10ra_site1_sap_24_mot_HHH_b2_04912_000000028_0001_1_20_H_._HHH_b2_02255_af2_0001_0000400043_0000001_0_0001 (protein)
chain: SSSSDEEYEEYAKALERIVKLLHEGDREEAERLAEELLEELREQGNRLMTYQVEHLLKLVRSSSS
B21: il10ra_site1_sap_14_mot_HHH_b1_05254_000000006_0001_1_19_H_._HHH_b2_02801_0001_0000600080_0000001_0_0001 (protein)
chain: SSSDAHRRIYELSRRVAELDHDGDTEEAREVLEEAQELAKEAGDRVLLAVLEFLEELLERLSSSS
B22: il10ra_site1_sap_18_mot_HHH_b1_03230_000000248_0001_1_19_H_._HHH_b2_05063_af2_0001_0000500013_0000001_0_0001 (protein)
chain: SSSSSEEEQRLEELIEEAEELLKNGDPERANKVLAEAVRLAFQLGDKEALQRIWELAKRSSSSSS
B23: il10ra_site1_normal_mot_HHH_b1_02997_000000220_0001_39_52_H_._HHH_b1_07617_0001_0000200017_0000001_0_af2pred_0001 (protein)
chain: SSSSSEHQRIYELIREAVRLAENGNPEEAREVVEEAQELAEEANDEAAEILIKFLLRKIEGSSSS
B24: il10ra_site1_sap_18_mot_HHH_b2_03076_af2_000000041_0001_42_56_H_._HHH_b1_04580_0001_0000300035_0000002_0_0001 (protein)
chain: SSSSDAYEAAKRIIERVLRLLEEGNEEEARELVERLREFAEERNSPILKATVRVLERIVESSSSS
B25: il10ra_site1_sap_17_mot_HHH_b1_04015_af2_000000074_0001_1_17_H_._HHH_b1_08117_af2_0001_0000600044_0000002_0_0001 (protein)
chain: SSSSSDEELEERIEELLRELEQITDPKEFIKVALEALRLIYELQDPELLRELWEIIKKNSSSSSS
B26: il10ra_site1_normal_mot_HHH_b2_03425_000000200_0001_22_39_H_._HHH_b1_00050_0001_0000100011_0000001_0 (protein)
chain: SSSSDLEERAEELIEELEKLQKEGDAEEVYRVAREVIEVAIEGGNEELLRLVMELLQEFFSSSSS
B27: il10ra_site1_sap_18_mot_HHH_b2_07873_af2_000000172_0001_1_19_H_._HHH_b2_00184_0001_0000400011_0000001_0_0001 (protein)
chain: SSSSDENQRALELSLEAFRVALRGNPEEAEKILEEAKEIAEEAGNERLVELIENLLETVRSSSSS
B28: il10ra_site1_normal_mot_HHH_b2_03801_000000188_0001_20_36_H_._HHH_b1_01557_0001_0000600034_0000001_0_af2pred_dldesign_0_af2pred (protein)
chain: SSSSSNKQIARDTAQRLLDAAKQMDDLEARRRALEYALALAEAINDEELIAEIRALLAELSSSSS
B29: il10ra_site1_sap_22_mot_HHH_b1_01247_af2_000000274_0001_1_19_H_._HHH_b2_07811_0001_0000500029_0000001_0_0001 (protein)
chain: SSSSDTHEVYKLSREAAELLAEGDPEQAEEVLEEAIELAEKLNSPVFRFALERMLKAVRERSSSS
B30: il10ra_site1_normal_mot_HHH_b1_03613_af2_000000245_0001_1_20_H_._HHH_b2_08139_0001_0000100005_0000001_0 (protein)
chain: SSSSSDELYEIVRRAIEEARELSKRDPEEAKEVLERALEVAEENNNFAARFSLEHLARALSSSSS
B31: il10ra_site1_normal_mot_HHH_b2_00277_af2_000000172_0001_1_17_H_._HHH_b1_06426_0001_0000300016_0000001_0 (protein)
chain: SSSSDEEVREILEEAEEATERGDEEKARELVLEAAAVAARLGDPHLSFLVIEVYARIHQYHSSSS
B32: il10ra_site1_sap_16_mot_HHH_b2_04251_af2_000000037_0001_42_56_H_._HHH_b1_00525_0001_0000300039_0000002_0_0001 (protein)
chain: SSSSDREEEIVRKIVEELGLSESIKHFLEWAARLLLEAGLSEEEVEERLKEMAERQARQDSSSSS
B33: il10ra_site1_normal_mot_HHH_b1_04100_af2_000000180_0001_1_19_H_._HHH_b2_02144_0001_0000500038_0000001_0 (protein)
chain: SSSSSDEEEVQRYVELALRFAELVEDERTRRFLLEAAKQMAELLNDPELRRLIEEVEEELSSSSS
B34: il10ra_site1_sap_23_mot_HHH_b2_01705_af2_000000069_0001_44_57_H_._HHH_b2_06012_0001_0000500032_0000003_0_0001 (protein)
chain: SSSSSKEEAEQLLVEAMELRNEGNPEEAKEVAEEALKLAEEGGDRATAWLIEQLLRALELSSSSS
B35: il10ra_site1_sap_19_mot_HHH_b1_03314_af2_000000278_0001_42_55_H_._HHH_b1_08751_0001_0000900020_0000001_0_0001 (protein)
chain: SSSSDERQEALRLHQEAFRLLLRGNPEEAERILERAEELARESGDERLLKMIEDLLKAHKSSSSS
B36: il10ra_site1_sap_26_mot_HHH_b1_06912_af2_000000235_0001_1_15_H_._HHH_b1_00301_af2_0001_0000600049_0000002_0_0001 (protein)
chain: SSSSDEAEEELERLLREIEEAIKEGDPEKVLRLLLEALRFAYRAGDEEALRELWELAKRIASSSS
B37: il10ra_site1_normal_mot_HHH_b1_06789_af2_000000041_0001_1_20_H_._HHH_b2_03756_0001_0000300018_0000002_0_af2pred_0001 (protein)
chain: SSSSDAERDVRIALKLAELAAEQGDEELVEKLLELAEHQARLSGDPELEELVEEVARKLTSSSSS

Biological target: il10ra, Q13651
Assay: yeast display titration

| Binder | apparent Kd |
| --- | --- |
| B1 | inactive: no binding seen |
| B2 | inactive: no binding seen |
| B3 | inactive: no binding seen |
| B4 | inactive: no binding seen |
| B5 | inactive: no binding seen |
| B6 | inactive: no binding seen |
| B7 | inactive: no binding seen |
| B8 | inactive: no binding seen |
| B9 | inactive: no binding seen |
| B10 | inactive: no binding seen |
| B11 | inactive: no binding seen |
| B12 | inactive: no binding seen |
| B13 | inactive: no binding seen |
| B14 | inactive: no binding seen |
| B15 | inactive: no binding seen |
| B16 | inactive: no binding seen |
| B17 | inactive: no binding seen |
| B18 | inactive: > 644 nM |
| B19 | inactive: no binding seen |

Random excerpt: two records from the list

| Binder | apparent Kd |
| --- | --- |
| B19 | inactive: no binding seen |
| B6 | inactive: no binding seen |

(further entries)

| Binder | apparent Kd |
| --- | --- |
| B20 | inactive: > 528 nM |
| B21 | inactive: no binding seen |
| B22 | inactive: no binding seen |
| B23 | inactive: no binding seen |
| B24 | inactive: no binding seen |
| B25 | inactive: no binding seen |
| B26 | inactive: no binding seen |
| B27 | inactive: no binding seen |
| B28 | inactive: no binding seen |
| B29 | inactive: no binding seen |
| B30 | inactive: no binding seen |
| B31 | inactive: no binding seen |
| B32 | inactive: no binding seen |
| B33 | inactive: no binding seen |
| B34 | inactive: no binding seen |
| B35 | inactive: no binding seen |
| B36 | inactive: no binding seen |
| B37 | inactive: no binding seen |
